No constants are given. Whether binding was seen depends on the method and setting. Some binding calls cover weakened binding; strength is not graded here.
Columns and labels:
[1] = molecular target: QβStrep recombinant Qβ phage displaying the Strep II tag on A1 (RNA coliphage Qβ) (UniProt Q8LTE1); test: ELISA, plate coated with phage, HRP conjugate titrated
[2] = molecular target: QβStrep recombinant Qβ phage displaying the Strep II tag on A1 (RNA coliphage Qβ) (UniProt Q8LTE1); test: ELISA, plate coated with phage
[3] = molecular target: QβStrep recombinant Qβ phage displaying the Strep II tag on A1 (RNA coliphage Qβ) (UniProt Q8LTE1); test: dot blot of phage dilutions on nitrocellulose, HRP conjugate

Measured: binding

streptavidin conjugated to HRP (from UniProt P22629 37-163)
binds: all assays above
